According to patent US20160074373A1, “METHODS AND COMPOSITIONS FOR INHIBITING HUMAN COPPER TRAFFICKING PROTEINS ATOX1 AND CCS” (SHANGHAI INSTITUTE OF MATERIA MEDICA, CHINESE ACADEMY OF …, priority 2013, published 2016):
Some results were stated once for a whole list of compounds, not compound by compound.

Molecular target: T1, hCCS (Homo sapiens, UniProt O14618)
T1 construct: 6-His (cleaved yes); made in house; host or cells: E. coli BL21 (pET28a)
T1 sequence (O14618 1-274): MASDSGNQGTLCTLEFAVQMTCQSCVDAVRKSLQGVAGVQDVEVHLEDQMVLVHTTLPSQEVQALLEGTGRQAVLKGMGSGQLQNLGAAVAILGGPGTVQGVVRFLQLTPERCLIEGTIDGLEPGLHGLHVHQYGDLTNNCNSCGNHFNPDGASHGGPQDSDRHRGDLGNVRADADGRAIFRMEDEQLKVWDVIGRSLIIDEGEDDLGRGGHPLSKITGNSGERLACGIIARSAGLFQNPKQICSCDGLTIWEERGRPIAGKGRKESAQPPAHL
Assay: Fluorescence-based thermal shift assay
Format: binding
Conditions: 9-fold excess of compound

Structure (SMILES) | shift of melting temperature (Tm)
CCN1CCc2nc3sc(C(=O)Nc4ccccc4OC(F)(F)F)c(N)c3cc2C1 [Compound 2, 3-amino-6-ethyl-N-(2-(trifluoromethoxy)phenyl)-5,6,7,8-tetrahydro-thieno[2,3-b][1,6]naphthyridine-2-carboxamide] | 1-1.5 °C
COc1ccc2cc3c(N)c(C(=O)Nc4ccc(C(C)=O)cc4)sc3nc2c1 [Compound 61, N-(4-acetylphenyl)-3-amino-7-methoxythieno[2,3-b]quinoline-2-carboxamide] | 1-1.5 °C
